Measured data: PubChem BioAssay AID493246 (Drosophila RNAi Screening Center, 2011)
Test: 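Genome-wide search for dsRNAs that reduce cell number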 (primary screen). Cells: Drosophila Kc and S2R+ cells. Reagent: long dsRNA against Drosophila genes. Measured: 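Raw, unnormalised count of remaining cells in each well; per-plate z-scores of cell number underlie the calls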. Scale: Kc cell number and S2R+ cell number: higher = more cells remaining. Active means: 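Active when the per-plate z-score of cell number is 3 or more in the direction of fewer cells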.
The screen tested about 21,000 reagents; shown is an unselected part of those with a known target gene and a result. In the full data, 429 (2%) got an active call. 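Values are raw and not normalised between plates; calls rest on per-plate z-scores that were not deposited.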 Unmarked entries are inactive. Names joined by + are all predicted targets of the reagent. Not given: the amount of reagent, the time to read-out.

target	DRSC id	Kc cell number, rep 1	Kc cell number, rep 2	S2R+ cell number, rep 1	S2R+ cell number, rep 2
Or35a (GeneID 34918)	DRSC03389	1.56e6	1.72e6	1.22e6	1.39e6
wntD (GeneID 41633)	DRSC16423	1.52e6	1.57e6	1.03e6	1.13e6
pn (GeneID 31194)	DRSC18822	5.36e5		8.05e5	
CG5080 (GeneID 33299)	DRSC00677	1.23e6	1.28e6	9.04e5	8.93e5
CG33642 (GeneID 3771733)	DRSC01325	1.60e6	1.62e6	1.10e6	1.23e6
Cyp12a5 (GeneID 42293)	DRSC16621	1.39e6	1.48e6	1.01e6	1.12e6
CG14777 (GeneID 31099)	DRSC18563	1.55e6	1.50e6	1.04e6	1.14e6
Phae2 (GeneID 34638)	DRSC02555	1.59e6	1.84e6	1.21e6	1.30e6
Sgsh (GeneID 42266)	DRSC14771	1.42e6	1.39e6	8.54e5	1.07e6
mRpL22 (GeneID 32662)	DRSC19915	1.50e6	1.51e6	9.66e5	1.09e6
mRpL11 (GeneID 41757)	DRSC15482	1.26e6	1.26e6	9.31e5	1.08e6
CG4520 (GeneID 41902)	DRSC15590	1.32e6	1.41e6	1.16e6	1.34e6
CG42471 (GeneID 8674020)	DRSC01210	1.55e6	1.62e6	1.07e6	1.14e6
CG12523 (GeneID 39216)	DRSC09895	1.52e6	1.48e6	1.02e6	1.14e6
CG11109 (GeneID 40507)	DRSC11633	1.86e6	1.88e6	1.52e6	1.52e6
Gga (GeneID 31902)	DRSC18260	5.37e5		9.38e5	
Grl36b (GeneID 318940)	DRSC01627	1.64e6	1.72e6	1.02e6	1.26e6
Lipt1 (GeneID 36795)	DRSC05600	5.82e5		7.63e5	
Lipt1 (GeneID 36795)	DRSC07183	1.43e6	1.35e6	1.14e6	1.22e6
nac (GeneID 40981)	DRSC16520	1.63e6	1.84e6	1.32e6	1.42e6
Nepl12 (GeneID 41172)	DRSC16411	1.40e6	1.40e6	1.30e6	1.37e6
Osbp (GeneID 42985)	DRSC16779	1.65e6	1.64e6	1.30e6	1.34e6
Grip84 (GeneID 32946)	DRSC20248	1.53e6	1.68e6	1.04e6	1.20e6
Ndf (GeneID 192507)	DRSC02775	1.30e6	1.37e6	1.22e6	1.23e6
CG5096 (GeneID 34410)	DRSC02813	1.59e6	1.79e6	1.40e6	1.49e6
LManI (GeneID 34436)	DRSC02838	1.68e6	1.69e6	1.23e6	1.44e6
CG10005 (GeneID 41451)	DRSC14172	1.87e6	1.88e6	1.29e6	1.36e6
CG14247 (GeneID 43221)	DRSC14742	1.53e6	1.54e6	1.04e6	1.15e6
CG8560 (GeneID 38830)	DRSC10994	1.37e6	1.43e6	1.16e6	1.14e6
CG4229 (GeneID 39840)	DRSC10407	1.61e6	1.68e6	1.26e6	1.29e6
CG31262 (GeneID 318649)	DRSC13216	1.89e6	1.80e6	1.16e6	1.34e6
MED7 (GeneID 41288)	DRSC16059	1.62e6	1.65e6	1.17e6	1.28e6
CG7328 (GeneID 40204)	DRSC10812	1.62e6	1.69e6	1.39e6	1.49e6
CG32591 (GeneID 318104)	DRSC19063	1.34e6	1.63e6	1.09e6	1.23e6
PIP4K (GeneID 3885565)	DRSC17213	1.47e6	1.48e6	1.00e6	1.10e6
otk2 (GeneID 36284)	DRSC07303	1.60e6	1.66e6	1.41e6	1.58e6
CG6179 (GeneID 32819)	DRSC19973	1.72e6	1.78e6	1.24e6	1.37e6
aqrs (GeneID 43396)	DRSC14724	1.49e6	1.51e6	1.05e6	1.10e6
Vha16-4 + CG15614	DRSC07321	1.49e6	1.49e6	1.14e6	1.30e6
unc-119 (GeneID 31664)	DRSC18846	1.52e6	1.54e6	1.09e6	1.19e6
CG33777 (GeneID 3772311)	DRSC08107	1.66e6	1.72e6	9.96e5	1.21e6
CG7137 (GeneID 37204)	DRSC07017	1.32e6	1.38e6	1.10e6	1.07e6
eve (GeneID 36039)	DRSC07614	1.68e6	1.73e6	1.43e6	1.52e6
wb (GeneID 43946)	DRSC01375	7.88e5 (active)	9.81e5	4.20e5	5.32e5
wb (GeneID 43946)	DRSC03634	1.59e6	1.67e6	1.34e6	1.49e6
pum (GeneID 41094)	DRSC12722	1.57e6	1.64e6	1.08e6	1.32e6
pum (GeneID 41094)	DRSC12726	1.83e6	1.79e6	1.12e6	1.36e6
pum (GeneID 41094)	DRSC17037	1.32e6	1.24e6	8.14e5	9.56e5
pum (GeneID 41094)	DRSC17038	1.72e6	1.98e6	1.32e6	1.48e6
bcd + CR14578	DRSC20984	1.47e6	1.45e6	9.94e5	1.16e6
Ugt303B2 (GeneID 42776)	DRSC14198	1.48e6	1.60e6	1.06e6	1.38e6
CG5321 (GeneID 32399)	DRSC19940	1.52e6	1.49e6	1.08e6	1.17e6
CG4269 (GeneID 37578)	DRSC04457	1.58e6	1.63e6	1.26e6	1.39e6
CG1354 (GeneID 31914)	DRSC17902	1.48e6	1.47e6	1.04e6	1.11e6
AsnRS-m (GeneID 36909)	DRSC07010	1.49e6	1.48e6	1.14e6	1.29e6
Eig71Ed (GeneID 39704)	DRSC11151	1.46e6	1.62e6	1.33e6	1.48e6
CG5062 (GeneID 31435)	DRSC18385	1.55e6	1.58e6	1.16e6	1.23e6
CG3062 (GeneID 31396)	DRSC18572	1.66e6	1.62e6	1.09e6	1.22e6
SLC22A (GeneID 40437)	DRSC11826	1.46e6	1.71e6	1.22e6	1.34e6
SLC22A (GeneID 40437)	DRSC11827	1.37e6	1.54e6	1.29e6	1.37e6

In a second layout: 4 of the entries above.
target | DRSC id | Kc cell number, rep 1 | Kc cell number, rep 2 | S2R+ cell number, rep 1 | S2R+ cell number, rep 2
aqrs (GeneID 43396) | DRSC14724 | 1.49e6 | 1.51e6 | 1.05e6 | 1.10e6
Vha16-4 + CG15614 | DRSC07321 | 1.49e6 | 1.49e6 | 1.14e6 | 1.30e6
unc-119 (GeneID 31664) | DRSC18846 | 1.52e6 | 1.54e6 | 1.09e6 | 1.19e6
CG33777 (GeneID 3772311) | DRSC08107 | 1.66e6 | 1.72e6 | 9.96e5 | 1.21e6
